Screen size: about 340,000 compounds; about 170 (0.05%) were called active. Inconclusive means that the source gave no clear call. Such entries were picked first, then a sample of the others. The call rests on the fitted dose curve; in most records, active means well fitted inhibition curve with a large enough effect in the signal ratio, with a control signal flat (not every such curve was filed as active); inconclusive means small, poorly fitted or top-dose-only effect, or effect the other way, or a change in a side signal; inactive means flat fitted curve, though single readings scatter; the % refers to the signal ratio. Potencies beside an inconclusive call are fits to weak or partial responses and may not hold up. Square brackets hold non-standard residues; d marks the D form. Peptide text beside a SMILES is read from it. * marks the point of attachment. Phe(4-Me) = Cc1ccc(C[CH](N)C(=O)O)cc1; Bz = O=C(c1ccccc1)*
Experiment: qHTS Assay to Find Inhibitors of Chronic Active B-Cell Receptor Signaling;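 on activity change, negative = inhibition: plate controls were basal doxycycline-induced cells for no effect and cells given 10 µM MG132 for full effect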
Conditions: ABC-DLBCL IkBa-CBG/CBR reporter, luminescence ratio (green luciferase fused to IkBa over red control in TMD8 lymphoma cells), 4 h; activity change, negative = inhibition: at 46.1 µM (top of the series)
Method in brief: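 TMD8 ABC-DLBCL cells carrying doxycycline-inducible green luciferase fused to IkappaBalpha plus unfused red luciferase were exposed to compounds (up to 46 uM) for 4 hrs at 37C. Activity came from the overlap-corrected green/red luminescence ratio.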
Potency means the concentration at half of the fitted maximal effect.

Row | Structure (SMILES) | Potency | activity change, negative = inhibition
1 | O=C(NCCN1CCCC1)C1CCN(S(=O)(=O)N2CCC3(CC2)OCCO3)CC1 | inconclusive: 1.84 µM [falling, partial curve, poor fit] | –
2 | N#CC1=C(N)NC(SCC(=O)O)=C(C#N)C12CCCC2 | – | inactive
3 | COc1ccccc1N(C)S(=O)(=O)c1ccc(Cl)c(C(=O)OCc2c(C)noc2C)c1 | – | inactive
4 | Cc1onc(C(=O)NN)c1-c1csc(COc2ccc(Cl)cc2)n1 | – | inconclusive: 3.45%
5 | CC(=O)Nc1ccc(C(=O)COC(=O)c2cccs2)c(F)c1 | – | inconclusive: 2.73%
6 | COc1ccccc1/C=c1\sc2nc(-c3ccccc3OC)nn2c1=O | inconclusive: 2.82 µM [falling, full curve, poor fit] | –
7 | Brc1ccc(-c2csc(-c3c[nH]c4ccccc34)n2)cc1 | – | inconclusive: 6.17%
8 | CCn1c2ccccc2c2cc(NC(=O)C(=O)NCC3CCCO3)ccc21 (stereo not given) | – | inconclusive: -15.1%
9 | CCNC(=S)/N=C(\N)Nc1nc(C)c2cc(C)ccc2n1 | inconclusive: 35.5 µM [rising, single point] | –
10 | CC1=NN(C(=O)c2ccccc2Br)C(O)(c2cccnc2)C1 (stereo not given) | inconclusive: 31.6 µM [falling, single point] | –
11 | COc1ccc(-n2c(=S)[nH]c3cc(C(=O)NCCCN4CCCC4=O)ccc3c2=O)cc1 | inconclusive: 0.794 µM [falling, partial curve, poor fit] | –
12 | CCN(C(=O)COC(=O)c1cccn1C)C1CCS(=O)(=O)C1 (stereo not given) | inconclusive: 11.2 µM [falling, partial curve, poor fit] | –
13 | Nc1[nH]nc2c1NN(c1ccc(Cl)cc1Cl)N2 | – | inconclusive: -0.284%
14 | CCOC(=O)c1c(-c2ccccc2)nc2cc(C)ccn12 | inconclusive: 11.2 µM [rising, partial curve, poor fit] | –
15 | NS(=O)(=O)c1ccc2nc(NC(=O)c3ccc(Br)o3)sc2c1 | inconclusive: 15.8 µM [falling, partial curve] | –
16 | On1c2c(c3c4nonc4ccc31)CCCC2 | – | inconclusive: 25.5%
17 | COc1ccc(NC(=O)COC(=O)c2ccc(C)c(S(=O)(=O)N3CCCCC3)c2)cc1 | – | inconclusive: 0.548%
18 | Cc1ccc(NC(=O)C2OCCc3ccccc32)cc1Cl (stereo not given) | – | inconclusive: 2.26%
19 | CC1CC(C)(C)NC(=S)N1CCC(=O)N1CCN(c2ccccc2)CC1 (stereo not given) | – | inactive
20 | COc1ccc2nc(N(Cc3cccnc3)C(=O)Cc3ccccc3)sc2c1 | inconclusive: 22.4 µM [falling, single point] | –
21 | COc1ccc(CCNc2ccc([N+](=O)[O-])cn2)cc1 | – | inactive
22 | COc1ccc2c(c1)nc(N)n2Cc1ccccc1 | – | inactive
23 | Cc1oc(C(=O)O)cc1CSc1nnc(-c2ccccc2)n1C | inconclusive: 23.1 µM [falling, partial curve, poor fit] | –
24 | O=C(COc1ccccc1Cc1ccccc1)Nc1cccc(S(=O)(=O)N2CCOCC2)c1 | – | inconclusive: -11.8%
25 | O=C(N/N=C/c1cccc([N+](=O)[O-])c1)c1cc2ccccc2o1 | – | inactive

Row | Structure (SMILES) | Potency | activity change, negative = inhibition
26 | CN(CC(=O)Nc1ccc(Cl)cc1)C(=O)CNC(=O)c1ccc2c(c1)OCO2 | inconclusive: 11.6 µM [falling, partial curve] | –
27 | CCOC(=O)N1CCC(NC(=O)c2cnn3c(C(F)(F)F)cc(-c4cccc(OC)c4)nc23)CC1 | – | inconclusive: 0.673%
28 | COCC(C)NC(=O)/C=C/c1ccc(OC)cc1 (stereo not given) | – | inconclusive: -9.95%
29 | O=C(N/N=C/c1cc([N+](=O)[O-])ccc1O)Nc1ccccc1 | inconclusive: 17.8 µM [falling, partial curve] | –
30 | COc1ccc(S(=O)(=O)N(C)c2ccc(C(=O)NCc3ccco3)cc2)cc1OC | – | inconclusive: 7.72%
31 | CCN(CC)c1ccc(NC(=O)c2ccc(NC(=O)C3CCCO3)cc2)c(C)c1 (stereo not given) | – | inconclusive: -0.1%
32 | CCOC(=O)c1nnn(-c2nonc2-n2cccc2)c1-c1cccc([N+](=O)[O-])c1 | – | inconclusive: 2.16%
33 | CCCCN(CCCC)c1nc2ccccc2nc1NS(=O)(=O)c1ccc(NC(C)=O)cc1 | inconclusive: 5.8 µM [rising, partial curve, poor fit] | –
34 | O=C(Nc1cc(C(F)(F)F)ccc1N1CCCC1)c1ccc2c(c1)OCO2 | – | inconclusive: 7.98%
35 | COc1ccc(C(=O)O/N=C(/c2ccccc2)c2ccncc2)cc1OC | inconclusive: 2.82 µM [falling, full curve] | –
36 | NC(=O)COC(=O)c1ccccc1SCC(=O)NC1CCCCCC1 | inconclusive: 31.6 µM [falling, single point] | –
37 | C=CCC[C@@H](Cc1ccc(F)cc1)C(=O)OC[C@H]1CCCN1C(=O)[C@@H](CC=C)CC(=O)N[C@H](CO)Cc1ccccc1 | – | inconclusive: -2.38%
38 | CCOc1ncccc1C(=O)OC(C)C(=O)NC(=O)NC1CCCCC1 (stereo not given) | – | inconclusive: 0.592%
39 | O=C(COC(=O)c1ccco1)NCc1ccc2c(c1)OCO2 | – | inconclusive: -0.514%
40 | COc1ccc(/C=C2\Oc3cc(OCC(=O)N4CCC[C@H]4CO)ccc3C2=O)c(OC)c1 | inconclusive: 22.4 µM [falling, partial curve] | –
41 | CCN1c2ccccc2-c2nc3ccccc3n2C1c1ccccn1 (stereo not given) | – | inconclusive: 5.06%
42 | C[C@@H](CSc1ccccc1)CN1CC[C@H](NC(=O)OCc2ccccc2)CCC1=O | – | inactive
43 | O=[N+]([O-])c1cccc(CSc2nnc3ccccn23)c1 | – | inactive
44 | Cc1ccc(CC(NC(=O)c2ccccc2)C(=O)NC(CC(C)C)C(=O)O)cc1 (stereo not given) (Bz-[Phe(4-Me)]-Leu-OH; configuration not given here) | inconclusive: 22.4 µM [falling, partial curve, poor fit] | –
45 | Cc1nn(-c2ccccc2)c(C)c1NC(=O)COC(=O)CCCOc1ccccc1 | – | inconclusive: -14.4%
46 | CN1CCN(C(=O)CN2C(=O)NC(C)(c3ccc4ccccc4c3)C2=O)CC1 (stereo not given) | – | inconclusive: 1.49%
47 | O=C(O)c1ccccc1C(=O)c1ccc(Br)s1 | – | inactive
48 | COc1ccc(S(=O)(=O)N(C)C[C@H]2Oc3ccc(NC(=O)Nc4ccc5c(c4)OCO5)cc3CC(=O)N([C@@H](C)CO)C[C@@H]2C)cc1 | – | inconclusive: -1.85%
49 | Cc1ccc(C(=O)CSc2nn3c(=O)c(C(C)(C)C)nnc3s2)cc1 | – | inconclusive: -2.49%
50 | CCOc1ccc(C(=O)NC(=S)Nc2ccccc2N2CCCCC2)cc1[N+](=O)[O-] | – | inactive

Whole records, looked up by structure. Order of values: Potency | activity change, negative = inhibition
O=C(Nc1cc(C(F)(F)F)ccc1N1CCCC1)c1ccc2c(c1)OCO2 in the list: – | inconclusive: 7.98%
CN1CCN(C(=O)CN2C(=O)NC(C)(c3ccc4ccccc4c3)C2=O)CC1 (stereo not given) in the list: – | inconclusive: 1.49%

More results

Row | Structure (SMILES) | Potency | activity change, negative = inhibition
51 | COC(=O)c1ccc(-c2noc(CN3CCCC(CNC(C)=O)C3)n2)cc1 (stereo not given) | – | inconclusive: 21.6%
52 | CC(C)COc1ccc(/C=C2/Sc3ccccc3C2=O)cc1 | – | inconclusive: -9.19%
53 | CCCn1c(SCC(=O)Nc2cccc(C(=O)OC)c2)nnc1-c1cccnc1 | inconclusive: 7.31 µM [falling, partial curve, poor fit] | –
54 | CC(=O)N1CCN(C(=O)c2ccc(S(=O)(=O)Nc3ccccc3C)cc2)CC1 | – | inconclusive: -5.67%
55 | Cc1cccc(NC(=O)CSc2ncnc3sc(C)c(C)c23)n1 | – | inconclusive: -8.22%
56 | CCOc1ccc(-c2nnc3ccc(SCc4ccc(C(=O)OC)o4)nn23)cc1 | inconclusive: 29.1 µM [falling, single point] | –
57 | O=C(O)c1ccccc1C(=O)Nc1ccc(Oc2ccc3ccccc3c2)cc1 | inconclusive: 12.6 µM [falling, partial curve] | –
58 | CCOC(=O)[C@H]1[C@H]2COc3ccccc3[C@@H]2N2C(=O)c3c(C)cc(C)cc3NC(=O)[C@@]12C | – | inconclusive: 7.17%
59 | BrC(/C=N/Nc1nc(N2CCOCC2)nc(N2CCOCC2)n1)=C/c1ccccc1 | – | inconclusive: -3.06%
60 | Cc1cc(=O)c(C(=O)Nc2cccc(N3CCCC3=O)c2)nn1-c1ccccc1F | – | inconclusive: -0.611%
61 | CN1CCN(C(=S)NC(=O)c2ccco2)CC1 | – | inconclusive: 5.52%
62 | CCCCCN(C(=O)CCC(=O)OCC(=O)c1ccc(C(C)CC)cc1)c1c(N)n(CCCC)c(=O)[nH]c1=O (stereo not given) | – | inactive
63 | COc1ccc(S(=O)(=O)N(C)c2ccccc2)c2cccnc12 | – | inconclusive: -0.269%
64 | CCOc1ccc(C2c3cc(OC)c(OC)cc3CC(=O)N2c2ccccc2)cc1 (stereo not given) | – | inconclusive: -11.7%
65 | Cc1ccc(Cl)cc1-n1ncc2c(N3CCN(Cc4ccccc4)CC3)ncnc21 | – | inactive
66 | O=C1N(Cc2cccc(Cl)c2)C[C@@H]2C[C@@H](c3cccc4ncccc34)N3CCC[C@@]123 | – | inconclusive: 3.21%
67 | Cc1ccc(-c2ccc(SCC(=O)c3ccccc3)nn2)cc1 | – | inconclusive: -8.13%
68 | COC(=O)c1cc(OC)c(OC)cc1N=CC1=C(O)CC(C)(C)CC1=O | – | inconclusive: -0.279%
69 | CCOC(=O)c1c(NC(=O)c2ccc(S(=O)(=O)N(C)C3CCCCC3)cc2)sc2c1CCN(C(C)C)C2 | – | inactive
70 | COC(=O)C1=C(C)NC(C)=C(C(=O)OC)C1c1ccccc1OCc1c(C)no[n+]1[O-] | – | inactive
71 | COc1cc(-c2nc(Cc3c(F)cccc3Cl)no2)cc(OC)c1OC | – | inconclusive: -0.882%
72 | O=C(O)c1ccc(N/N=C/C(Br)=C/c2ccccc2)cc1 | – | inconclusive: 213%
73 | CCCCC1=NN(C(=O)c2cccnc2)C(O)(C(F)(F)F)C1 (stereo not given) | inconclusive: 10 µM [falling, partial curve, poor fit] | –
74 | COc1ccc(Cl)cc1NC(=S)NCCC(c1ccccc1)c1ccccc1 | inconclusive: 16.4 µM [rising, partial curve, poor fit] | –
75 | COc1ccc(S(=O)(=O)N2CCCCC2)cc1NS(=O)(=O)c1ccccc1F | – | inactive

In a second layout: four of the compounds above
Row,Structure (SMILES),Potency,"activity change, negative = inhibition"
61,CN1CCN(C(=S)NC(=O)c2ccco2)CC1,–,inconclusive: 5.52%
62,CCCCCN(C(=O)CCC(=O)OCC(=O)c1ccc(C(C)CC)cc1)c1c(N)n(CCCC)c(=O)[nH]c1=O (stereo not given),–,inactive
63,COc1ccc(S(=O)(=O)N(C)c2ccccc2)c2cccnc12,–,inconclusive: -0.269%
64,CCOc1ccc(C2c3cc(OC)c(OC)cc3CC(=O)N2c2ccccc2)cc1 (stereo not given),–,inconclusive: -11.7%
